# Experimental data published in article PMC9346486.
# Chains of the proteins cited; added tags and fusions are not shown.
# UniProt P08670: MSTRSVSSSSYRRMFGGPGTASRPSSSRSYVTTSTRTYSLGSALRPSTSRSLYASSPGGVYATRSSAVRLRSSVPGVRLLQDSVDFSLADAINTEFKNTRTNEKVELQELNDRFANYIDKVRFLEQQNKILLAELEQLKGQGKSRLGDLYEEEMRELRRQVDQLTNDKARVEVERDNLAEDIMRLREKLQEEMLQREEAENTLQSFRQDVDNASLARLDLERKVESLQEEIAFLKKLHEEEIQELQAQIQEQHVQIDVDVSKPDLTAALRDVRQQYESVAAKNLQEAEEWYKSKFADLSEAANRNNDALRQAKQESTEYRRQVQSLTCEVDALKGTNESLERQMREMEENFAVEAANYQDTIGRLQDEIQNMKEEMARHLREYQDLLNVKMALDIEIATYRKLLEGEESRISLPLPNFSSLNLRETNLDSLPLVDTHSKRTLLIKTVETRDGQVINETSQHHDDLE
# UniProt O14744: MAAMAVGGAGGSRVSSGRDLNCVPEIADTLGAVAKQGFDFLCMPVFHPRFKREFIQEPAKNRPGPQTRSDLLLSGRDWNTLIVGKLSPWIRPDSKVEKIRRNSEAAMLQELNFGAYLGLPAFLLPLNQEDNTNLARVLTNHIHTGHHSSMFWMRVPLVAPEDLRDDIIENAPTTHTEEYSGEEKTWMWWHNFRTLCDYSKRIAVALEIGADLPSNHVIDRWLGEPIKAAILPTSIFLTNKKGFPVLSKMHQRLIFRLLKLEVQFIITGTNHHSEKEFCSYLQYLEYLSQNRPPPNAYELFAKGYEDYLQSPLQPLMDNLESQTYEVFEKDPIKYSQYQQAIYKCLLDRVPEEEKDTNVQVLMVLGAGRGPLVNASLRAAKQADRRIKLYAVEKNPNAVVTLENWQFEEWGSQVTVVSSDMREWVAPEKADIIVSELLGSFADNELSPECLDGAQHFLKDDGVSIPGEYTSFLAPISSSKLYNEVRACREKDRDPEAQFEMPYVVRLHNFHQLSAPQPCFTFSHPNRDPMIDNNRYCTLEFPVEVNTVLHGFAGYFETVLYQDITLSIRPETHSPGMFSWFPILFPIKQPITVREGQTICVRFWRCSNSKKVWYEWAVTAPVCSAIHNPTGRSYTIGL
# These are yes or no findings as the source states them, for the method shown. In cells and extracts the contact can be indirect. Some binding calls cover weakened binding; strength is not graded here.
# Molecular target: vimentin (human (endogenous in CL1-5)) (UniProt P08670)
# Assay: co-IP; endogenous proteins from lysates of CL1-5 Mock and MTAP-overexpressing cells; lysis buffer 50 mM Tris-HCl pH 7.4, 1% NP-40, 150 mM NaCl, 1 mM EDTA; Protein A/G PLUS-Agarose beads; Western blot; the precipitating antibody is not given
substance,measurement,value
protein arginine methyltransferase 5 (from UniProt O14744 1-637) (enzyme),binding,binds
